These are yes or no findings as the source states them, for the method shown. For some of these results: Binding seen in cells or lysates may run through a third protein. Some binding calls cover weakened binding; strength is not graded here. Where a sequence is shown, tags or fusion partners need not be part of it. Blank lines part the entries; values can stand above or below the binder they belong to.
What was measured:
[1] = target: LexA-Max (full length Max polypeptide fused to LexA) (UniProt P61244); experiment: yeast two-hybrid, X-gal plates (B42-Nmi prey, LexA bait)
[2] = target: LexA-Max (full length Max polypeptide fused to LexA) (UniProt P61244); experiment: yeast two-hybrid (member of the group by paragraph 437: bHLH-Zip)
[3] = target: Full-length His-tagged N-myc (pCMV8 vector, expressed in 293 cells) (UniProt P04198); experiment: co-precipitation from transfected mammalian cells
[4] = target: GST-C-myc (full length C-myc in pEBG vector, expressed in 293 cells) (UniProt P01106); experiment: co-precipitation from transfected mammalian cells
[5] = target: Full-length His-tagged N-myc (pCMV8 vector, expressed in 293 cells) (UniProt P04198); experiment: co-precipitation from 293 cells on His-resin, anti-HA Western blot
[6] = target: GST-C-myc (full length C-myc in pEBG vector, expressed in 293 cells) (UniProt P01106); experiment: co-precipitation from 293 cells on GST-resin (glutathione-agarose), anti-HA Western blot
[7] = target: full length Mxi2 fused to LexA1-220 (UniProt P0A7C2); experiment: yeast two-hybrid screen of a HeLa cDNA library with the LexA-Mxi2 bait; both colonies held the partial Omi cDNA
[8] = target: LexA-Max (full length Max polypeptide fused to LexA) (UniProt P61244); experiment: yeast two-hybrid
[9] = target: T1, RB protein (LexA fusion bait) (UniProt P06400); experiment: yeast mating assay (two-hybrid)
T1 sequence (looked up): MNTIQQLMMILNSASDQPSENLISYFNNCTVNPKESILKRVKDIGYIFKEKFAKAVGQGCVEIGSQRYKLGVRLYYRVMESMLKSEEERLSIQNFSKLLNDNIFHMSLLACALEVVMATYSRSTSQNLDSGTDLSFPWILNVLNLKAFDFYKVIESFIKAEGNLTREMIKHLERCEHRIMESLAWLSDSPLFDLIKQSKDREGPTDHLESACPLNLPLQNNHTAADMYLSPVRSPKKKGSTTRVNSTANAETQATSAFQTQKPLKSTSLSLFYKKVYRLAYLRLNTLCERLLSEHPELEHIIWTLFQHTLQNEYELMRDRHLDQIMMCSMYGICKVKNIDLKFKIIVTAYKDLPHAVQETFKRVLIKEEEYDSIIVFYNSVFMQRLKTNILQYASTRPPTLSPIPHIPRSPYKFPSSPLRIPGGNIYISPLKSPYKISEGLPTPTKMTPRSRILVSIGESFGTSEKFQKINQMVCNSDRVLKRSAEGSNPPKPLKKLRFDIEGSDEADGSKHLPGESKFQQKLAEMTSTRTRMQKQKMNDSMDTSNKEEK

By UniProt entry, the sequences of proteins in these tests, tags left out. Where a name states a change or a piece, a line headed by the entry shows the natural chain unless it says otherwise. Residues count along the entry.
UniProt P61244, residues 2-160: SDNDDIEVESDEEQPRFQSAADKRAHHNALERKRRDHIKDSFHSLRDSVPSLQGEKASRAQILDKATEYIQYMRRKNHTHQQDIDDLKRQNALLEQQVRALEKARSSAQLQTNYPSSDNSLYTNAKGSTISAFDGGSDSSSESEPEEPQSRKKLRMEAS
UniProt P04198: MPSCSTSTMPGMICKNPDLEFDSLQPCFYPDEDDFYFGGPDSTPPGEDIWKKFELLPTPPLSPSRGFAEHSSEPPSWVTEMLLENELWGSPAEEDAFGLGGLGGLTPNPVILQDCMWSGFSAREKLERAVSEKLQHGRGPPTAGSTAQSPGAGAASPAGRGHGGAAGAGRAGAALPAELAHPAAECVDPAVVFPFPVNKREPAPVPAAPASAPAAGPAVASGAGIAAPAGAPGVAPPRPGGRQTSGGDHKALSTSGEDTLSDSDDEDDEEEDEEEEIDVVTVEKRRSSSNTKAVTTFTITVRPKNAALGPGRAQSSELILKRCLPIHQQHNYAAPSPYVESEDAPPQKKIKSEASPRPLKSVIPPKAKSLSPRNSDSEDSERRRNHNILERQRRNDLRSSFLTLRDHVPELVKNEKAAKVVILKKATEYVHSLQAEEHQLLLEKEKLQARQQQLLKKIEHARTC
UniProt P01106: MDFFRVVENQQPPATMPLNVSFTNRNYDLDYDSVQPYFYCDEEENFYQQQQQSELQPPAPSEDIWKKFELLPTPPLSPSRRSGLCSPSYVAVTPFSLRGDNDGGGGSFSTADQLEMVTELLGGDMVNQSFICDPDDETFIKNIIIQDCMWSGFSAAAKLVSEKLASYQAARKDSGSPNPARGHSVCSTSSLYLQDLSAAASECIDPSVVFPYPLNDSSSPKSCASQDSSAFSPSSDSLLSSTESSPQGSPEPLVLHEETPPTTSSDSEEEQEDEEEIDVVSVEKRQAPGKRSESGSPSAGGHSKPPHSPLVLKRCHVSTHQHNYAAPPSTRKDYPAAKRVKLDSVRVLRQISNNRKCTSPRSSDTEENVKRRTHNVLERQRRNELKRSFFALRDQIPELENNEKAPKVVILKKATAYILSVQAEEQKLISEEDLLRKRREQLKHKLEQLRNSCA
UniProt P0A7C2: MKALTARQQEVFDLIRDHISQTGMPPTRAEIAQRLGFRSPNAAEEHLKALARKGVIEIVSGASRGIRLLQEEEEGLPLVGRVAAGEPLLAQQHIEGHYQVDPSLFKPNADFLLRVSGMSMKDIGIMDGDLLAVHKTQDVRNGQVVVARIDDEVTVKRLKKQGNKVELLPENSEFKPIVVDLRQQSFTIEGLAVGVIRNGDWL
UniProt Q08999, residues 417-1139: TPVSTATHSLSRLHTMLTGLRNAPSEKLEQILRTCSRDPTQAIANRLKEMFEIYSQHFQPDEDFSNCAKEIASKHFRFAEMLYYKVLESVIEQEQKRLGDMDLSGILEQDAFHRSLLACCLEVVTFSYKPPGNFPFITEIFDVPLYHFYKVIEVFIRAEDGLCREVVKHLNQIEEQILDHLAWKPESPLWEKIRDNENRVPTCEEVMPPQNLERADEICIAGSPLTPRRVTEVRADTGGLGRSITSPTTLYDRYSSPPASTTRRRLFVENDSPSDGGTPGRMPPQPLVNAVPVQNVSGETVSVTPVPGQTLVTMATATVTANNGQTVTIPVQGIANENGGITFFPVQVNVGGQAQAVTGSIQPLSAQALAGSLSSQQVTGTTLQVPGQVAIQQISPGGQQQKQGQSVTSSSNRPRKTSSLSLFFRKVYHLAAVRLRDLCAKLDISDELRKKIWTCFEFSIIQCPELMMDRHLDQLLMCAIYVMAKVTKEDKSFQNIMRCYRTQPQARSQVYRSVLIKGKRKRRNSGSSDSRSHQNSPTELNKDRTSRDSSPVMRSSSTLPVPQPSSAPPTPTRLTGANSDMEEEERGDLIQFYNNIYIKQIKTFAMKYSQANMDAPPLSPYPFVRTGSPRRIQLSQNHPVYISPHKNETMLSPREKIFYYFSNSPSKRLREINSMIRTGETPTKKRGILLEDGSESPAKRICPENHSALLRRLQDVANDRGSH

[10] = target: T2, p107 protein (LexA fusion bait) (UniProt P28749); experiment: yeast mating assay (two-hybrid)
T2 sequence (looked up): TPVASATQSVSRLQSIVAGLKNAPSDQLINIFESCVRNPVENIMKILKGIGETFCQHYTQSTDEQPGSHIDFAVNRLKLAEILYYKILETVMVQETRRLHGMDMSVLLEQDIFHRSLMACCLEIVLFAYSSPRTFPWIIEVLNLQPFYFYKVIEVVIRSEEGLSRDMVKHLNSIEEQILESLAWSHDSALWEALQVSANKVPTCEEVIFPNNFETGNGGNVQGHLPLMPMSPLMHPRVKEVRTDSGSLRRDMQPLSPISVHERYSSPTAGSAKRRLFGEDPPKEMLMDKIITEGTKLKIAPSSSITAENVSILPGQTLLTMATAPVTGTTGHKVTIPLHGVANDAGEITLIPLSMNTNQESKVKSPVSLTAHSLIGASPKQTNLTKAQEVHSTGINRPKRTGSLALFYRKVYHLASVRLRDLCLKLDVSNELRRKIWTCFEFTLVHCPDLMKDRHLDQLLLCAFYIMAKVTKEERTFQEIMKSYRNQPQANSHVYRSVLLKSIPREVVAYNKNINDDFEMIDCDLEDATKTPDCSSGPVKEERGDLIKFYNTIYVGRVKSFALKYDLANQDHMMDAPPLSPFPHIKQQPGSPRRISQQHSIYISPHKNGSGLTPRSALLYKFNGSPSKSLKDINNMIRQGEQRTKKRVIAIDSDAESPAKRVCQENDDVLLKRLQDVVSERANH

[11] = target: p130 protein (LexA fusion bait) (UniProt Q08999); experiment: yeast mating assay (two-hybrid)
[12] = target: LexA-Max (full length Max polypeptide fused to LexA) (UniProt P61244); experiment: yeast two-hybrid screen of a human keratinocyte cDNA library with the LexA-Max bait

B2: Nmi-HA (full length Nmi in pMT3 vector, expressed in 293 cells) (protein, not shown: small tags and cut ends)
chain: MEADKDDTQQILKEHSPDEFIKDEQNKGLIDEITKKNIQLKKEIQKLETELQEATKEFQIKEDIPETKMKFLSVETPENDSQLSNISCSFQVSSKVPYEIQKGQALITFEKEEVAQNVVSMSKHHVQIKDVNLEVTAKPVPLNSGVRFQVYVEVSKMKINVTEIPDTLREDQMRDKLELSFSKFRNGGGEVDRVDYDRQSGSAVITFVEIGVADKILKKKEYPLYINQTCHRVTVSPYTEIHLKKYQIFSGTSKRTVLLTGMEGIQMDEEIVEDLINIHFQRAKNGGGEVDVVKCSLGQPHIAYFEE
binding [3]: binds
binding [4]: binds
binding [5]: binds
binding [6]: binds

B5: Mad4 (positive clone of the human keratinocyte cDNA library in pJG4-5) (protein, UniProt Q14582 1-209, looked up, not shown: large carriers)
chain: MELNSLLILLEAAEYLERRDREAEHGYASVLPFDGDFAREKTKAAGLVRKAPNNRSSHNELEKHRRAKLRLYLEQLKQLVPLGPDSTRHTTLSLLKRAKVHIKKLEEQDRRALSIKEQLQQEHRFLKRRLEQLSVQSVERVRTDSTGSAVSTDDSEQEVDIEGMEFGPGELDSVGSSSDADDHYSLQSGTGGDSGFGPHCRRLGRPALS
binding [12]: binds

B6: L-myc (positive clone of the human keratinocyte cDNA library in pJG4-5) (protein, UniProt P12524 260-364, looked up, not shown: large carriers)
chain: VESEAAQSCHPKPVSSDTEDVTKRKNHNFLERKRRNDLRSRFLALRDQVPTLASCSKAPKVVILSKALEYLQALVGAEKRMATEKRQLRCRQQQLQKRIAYLTGY
binding [12]: binds

The remaining lines, values ahead:

binding [1]: binds
binding [2]: binds
B1: full length Nmi fused in-frame with the transcriptional activator B42 in JG4-5 vector (protein, not shown: small tags and cut ends)
chain: MEADKDDTQQILKEHSPDEFIKDEQNKGLIDEITKKNIQLKKEIQKLETELQEATKEFQIKEDIPETKMKFLSVETPENDSQLSNISCSFQVSSKVPYEIQKGQALITFEKEEVAQNVVSMSKHHVQIKDVNLEVTAKPVPLNSGVRFQVYVEVSKMKINVTEIPDTLREDQMRDKLELSFSKFRNGGGEVDRVDYDRQSGSAVITFVEIGVADKILKKKEYPLYINQTCHRVTVSPYTEIHLKKYQIFSGTSKRTVLLTGMEGIQMDEEIVEDLINIHFQRAKNGGGEVDVVKCSLGQPHIAYFEE

binding [7]: binds
B3: partial Omi polypeptide of 313 amino acids fused in frame to the B42 activation domain of the pJG-4.5 vector (protein, not shown: large carriers)
chain: QYNFIADVVEKTAPAVVYIEILDRHPFLGREVPISNGSGFVVAADGLIVTNAHVVADRRRVRVRLLSGDTYEAVVTAVDPVADIATLRIQTKEPLPTLPLGRSADVRQGEFVVAMGSPFALQNTITSGIVSSAQRPARDLGLPQTNVEYIQTDAAIDFGNSGGPLVNLDGEVIGVNTMKVTAGISFAIPSDRLREFLHRGEKKNSSSGISGSQRRYIGVMMLTLSPSILAELQLREPSFPDVQHGVLIHKVILGSPAHRAGLRPGDVILAIGEQMVQNAEDVYEAVRTQSQLAVQIRRGRETLTLYVTPEVTE

binding [8]: binds
binding [9]: binds
binding [10]: binds
binding [11]: binds
B4: p32.2, polypeptide of 756 amino acids encoded by clone 32.2, fused in frame with the B42 activation domain of the pJG-4.5 vector (protein, not shown: large carriers)
chain: IENDQQHQAAELECEEDVIPDSPITAFSFSGVNRLRRKENPHVRYIEQTHTKLEHSVCANEMRKVSKSSTHPQHNPNENEILVADTYDQSQSPMAKAHGTSSYTPDKSSFNLATVVAETLGLGVQEESETQGPMSPLGDELYHCLEGNHKKQPFEESTRNTEDSLRFSDSTSKTPPQEELPTRVSSPVFGATSSIKSGLDLNTSLSPSLLQPGKKKHLKTLPFSNTCISRLEKTRSKSEDSALFTHHSLGSEVNKIIIQSSNKQILINKNISESLGEQNRTEYGKDSNTDKHLEPLKSLGGRTSKRKKTEEESEHEVSCPQASFDKENAFPFPMDNQFSMNGDCVMDKPLDLSDRFSAIQRQEKSQGSETSKNKFRQVTLYEALKTIPKGFSSSRKASDGNCTLPKDSPGEPCSQECIILQPLNKCSPDNKPSLQIKEENAVFKIPLRPRESLETENVLDDIKSAGSHEPIKIQTRSDHGGCELASVLQLNPCRTGKIKSLQNNQDVSFENIQWSIDPGADLSQYKMDVTVIDTKDGSQSKLGGETVDMDCTLVSETVLLKMKKQEQKGEKSSNEERKMNDSLEDMFDRTTHEEYESCLADSFSQAADEEEELSTATKKLHTHGDKQDKVKQKAFVEPYFKGDERETSLQNFPHIECVRKKEERRKLLGHTCKECEIYYADMPAEEREKKLASCSRHRFRYIPPNTPENFWEVGFPSTQTCMERGYIKEDLDPCPRPKRRQPYNAIFSPKGKEQKT

Source: US20030157685A1
